Here are results for one substance from article PMC3646808, “Aggregate-Reactivation Activity of the Molecular Chaperone ClpB from Ehrlichia chaffeensis” (PLoS ONE, 2013).

No constants are given. Whether binding was seen depends on the method and setting. For some assays here: A result given as binding can be weak or reduced; the word gives no strength. Sequences can lack the tags named with a protein.

Experiment [1] deals with T1, aggregated glucose-6-phosphate dehydrogenase from Leuconostoc mesenteroides (Leuconostoc mesenteroides) (UniProt P11411).
T1 sequence: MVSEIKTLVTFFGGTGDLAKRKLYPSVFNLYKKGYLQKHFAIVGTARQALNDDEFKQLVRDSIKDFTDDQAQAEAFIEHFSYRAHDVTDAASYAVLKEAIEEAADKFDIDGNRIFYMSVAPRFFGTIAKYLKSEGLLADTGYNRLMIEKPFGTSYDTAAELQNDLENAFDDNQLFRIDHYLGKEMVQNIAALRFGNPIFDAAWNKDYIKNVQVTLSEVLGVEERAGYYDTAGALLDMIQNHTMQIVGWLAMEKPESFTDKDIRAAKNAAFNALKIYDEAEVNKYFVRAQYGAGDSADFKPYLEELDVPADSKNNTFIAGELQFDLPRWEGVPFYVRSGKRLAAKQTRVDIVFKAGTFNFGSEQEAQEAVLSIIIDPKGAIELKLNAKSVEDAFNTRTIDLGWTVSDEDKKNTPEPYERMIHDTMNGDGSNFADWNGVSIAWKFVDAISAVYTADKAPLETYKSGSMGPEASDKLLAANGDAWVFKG
Kind of experiment: retention with aggregates on a 0.1-µm filter, SDS-PAGE; aggregated G6PDH (16 µM diluted 10-fold) with 1.5 µM ClpB and 6 mM ATP in refolding buffer 1, 30°C, 20 min; filter-retained fraction on SDS-PAGE with Coomassie stain; both purified.

The target of experiment [2] is T1, aggregated glucose-6-phosphate dehydrogenase from Leuconostoc mesenteroides (Leuconostoc mesenteroides). Put plainly: retention with aggregates on a 0.1-µm filter, SDS-PAGE; aggregated G6PDH (16 µM diluted 10-fold) with 1.5 µM ClpB and 6 mM AMPPNP in refolding buffer 1, 30°C, 20 min; filter-retained fraction on SDS-PAGE with Coomassie stain; both purified.

Regarding “ClpB from Ehrlichia chaffeensis (E. chaffeensis)”, the binding result is recorded as “binds” in experiment [1] and “no binding (only with 6 mM AMPPNP)” in experiment [2].
